This is an account of results in publication PMC10988762, “Inhibition of malaria and babesiosis parasites by putative red blood cell targeting small molecules” (Frontiers in Cellular and Infection Microbiology, 2024).

One assay relates to P. falciparum strain Dd2. The experiment in a line: Inhibitor susceptibility dose-response assay (SYBR-Green I), P. falciparum Dd2. The settings on record: Plasmodium falciparum, 72h, ring-stage, n=3 experiments (or 2 where indicated with *), read-out: IC50 (S.D.), P. falciparum-Dd2. The assay is classed as cell-based. The text has this:
(§1) The P. falciparum strains 3D7 and Dd2 were obtained from the Walter and Eliza Hall Institute (Melbourne, Australia) and the Malaria Research and Reference Reagent Resource, respectively. The P. knowlesi YH1 strain adapted for growth in human erythrocytes and the BdC9 line of B. divergens were previously reported ([Lim et al., 2013]; [Rezvani et al., 2022]). All parasite lines were maintained in continuous culture in human erythrocytes O+ purchased from a commercial source (Research Blood Components, Boston USA) in RPMI-1640 medium as described (eg [Rezvani et al., 2022]), typically at 2%-hematocrit. Plasmodium parasites were synchronized using sorbitol (5% [wt/vol] for both P. falciparum and P. knowlesi; for P. knowlesi, with addition of 20 mM Na-HEPES and 0.1 mg/ml BSA) ([Lambros and Vanderberg, 1979]) at least once in the week prior to assays. […]
(§2) We carried out dose-response assays in 384-well plates (40 µl assay volume) for measurement with SYBR-Green I dye ([Mandt et al., 2019]), with test compounds pre-printed into wells via use of a D300 Digital Dispenser (Hewlett-Packard). […] To quantify the species-specificity of the inhibitors, we divided the range of IC50s across the 4 test lines by the average IC50 across the same lines: inhibitors with increased scores show species-specific activity and reduced scores indicate broad-spectrum, pan-species activity.

The subject of the next assay is P. knowlesi YH1 strain. The experiment in a line: microbe, parasite or virus in culture. The format is cell-based. The conditions noted are these: Plasmodium knowlesi, 48 h, read-out: IC50 (S.D.), P. knowlesi.
Source text: as §1, §2

Assay [1] deals with BdC9 line of B. divergens. The experiment in a line: Inhibitor susceptibility dose-response assay (SYBR-Green I), B. divergens. The format is cell-based. The settings on record: Babesia divergens; 72h, asynchronous; n=3 experiments (or 2 where indicated with *); read-out: IC50 (S.D.), B. divergens.
Source text: as §1, §2

For another assay, the system named is Band 3 phosphorylation. The conditions noted are these: read-out: Micromolar IC50 (RBC), Band 3 phosphorylation; RBC assay: Band 3 phosphorylation ref PMID 27768734; cited from earlier work.

pIC50: −log10 of the molar value. Where a name gives a salt, the structure may show the parent alone.

What is called pIC50 is −log10 of the IC50, conventionally taken in molar units. `Cc1ccc(NC(=O)c2ccc(CN3CCN(C)CC3)cc2)cc1Nc1nccc(-c2cccnc2)n1` [Imatinib mesylate]: the negative-log IC50 (pIC50) in the assay on P. falciparum strain Dd2 is 5.24; with P. knowlesi YH1 strain it was 5.40; in assay [1], 4.70; in the assay on Band 3 phosphorylation it was more than 5.30.
